{"sequences": {"note": "By UniProt entry, the sequences of proteins in these tests, tags left out. Where a name states a change or a piece, a line headed by the entry shows the natural chain unless it says otherwise.", "UniProt A0A285VWG3": "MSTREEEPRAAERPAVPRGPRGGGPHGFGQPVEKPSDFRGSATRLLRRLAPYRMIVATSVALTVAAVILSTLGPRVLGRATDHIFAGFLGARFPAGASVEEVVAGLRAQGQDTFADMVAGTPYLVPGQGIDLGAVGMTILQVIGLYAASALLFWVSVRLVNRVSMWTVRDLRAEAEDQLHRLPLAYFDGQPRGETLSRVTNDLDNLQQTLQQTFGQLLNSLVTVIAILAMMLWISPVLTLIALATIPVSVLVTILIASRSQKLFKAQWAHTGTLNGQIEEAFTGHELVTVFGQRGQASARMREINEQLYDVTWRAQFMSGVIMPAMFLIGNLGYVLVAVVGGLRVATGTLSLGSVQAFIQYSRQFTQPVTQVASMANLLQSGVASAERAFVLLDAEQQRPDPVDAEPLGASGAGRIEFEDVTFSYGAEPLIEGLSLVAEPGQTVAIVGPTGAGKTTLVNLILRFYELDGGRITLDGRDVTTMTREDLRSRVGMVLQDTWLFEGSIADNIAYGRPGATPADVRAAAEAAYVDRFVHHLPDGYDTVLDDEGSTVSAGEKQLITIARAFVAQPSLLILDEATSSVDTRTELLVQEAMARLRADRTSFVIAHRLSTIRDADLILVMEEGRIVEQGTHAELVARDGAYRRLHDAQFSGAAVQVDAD"}, "source": "paper PMC11109279", "about": "“Heliorhodopsin-mediated light-modulation of ABC transporter” (Nature Communications, 2024)", "target": "OmrD (OmrD::his-tag) (Omithinimicrobium cerasi strain USBA17B2)", "assay": "pull-down; His-tag pull-down: Ni2+-NTA agarose added to solubilized membrane proteins of E. coli co-expressing OmrD::his-tag and OmrE::HA-tag; 25 °C, 2 h; washed five times with buffer SD; western blotting with His- and HA-tag antibodies", "note": "These are yes or no findings as the source states them, for the method shown. In cells and extracts the contact can be indirect. Binding can be weak; no strength is given.", "data": [{"substance": "OmrE::HA-tag (from UniProt A0A285VWG3)", "values": [{"measurement": "binding", "value": "binds"}]}]}
